In assay [1] the target is T1, BIK1-HA (HA-tagged BIK1 in transgenic Arabidopsis) (Arabidopsis (Col-0 cDNA)) (UniProt O48814).
T1 sequence: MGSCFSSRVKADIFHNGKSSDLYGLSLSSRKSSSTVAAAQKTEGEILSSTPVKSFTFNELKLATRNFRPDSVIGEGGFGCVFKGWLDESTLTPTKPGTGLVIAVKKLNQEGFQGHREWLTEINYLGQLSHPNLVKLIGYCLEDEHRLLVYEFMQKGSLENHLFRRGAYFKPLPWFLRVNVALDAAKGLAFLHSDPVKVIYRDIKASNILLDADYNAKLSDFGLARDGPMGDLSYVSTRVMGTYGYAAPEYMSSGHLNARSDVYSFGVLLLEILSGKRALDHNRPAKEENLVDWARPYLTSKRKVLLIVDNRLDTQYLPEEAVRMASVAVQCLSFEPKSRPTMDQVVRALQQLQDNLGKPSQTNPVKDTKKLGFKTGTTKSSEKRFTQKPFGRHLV
Put plainly: co-IP; FLAG-RB-N transiently expressed 16 hours in protoplasts from BIK1-HA or BIK1^C80A-HA plants; treated or not with 1 uM flg22, 10 uM GSNO or 200 uM cPTIO for 15 min; immunoprecipitation with anti-HA agarose, anti-FLAG immunoblot. (Immunoblotting shows a protein as a band on a membrane.)

The chains behind the UniProt entries cited, without tags or fusion partners. Residues count along the entry.
UniProt Q9FIJ0, residues 1-376: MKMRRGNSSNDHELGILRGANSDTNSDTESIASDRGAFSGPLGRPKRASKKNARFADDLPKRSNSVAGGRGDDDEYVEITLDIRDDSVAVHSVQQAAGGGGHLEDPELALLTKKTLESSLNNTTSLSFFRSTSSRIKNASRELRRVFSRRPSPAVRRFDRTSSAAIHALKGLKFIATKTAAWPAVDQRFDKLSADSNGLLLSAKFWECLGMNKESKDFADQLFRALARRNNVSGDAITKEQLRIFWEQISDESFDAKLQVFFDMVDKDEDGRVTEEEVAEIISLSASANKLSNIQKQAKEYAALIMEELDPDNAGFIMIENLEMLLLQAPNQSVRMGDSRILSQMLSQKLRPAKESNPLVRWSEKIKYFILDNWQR

The target in assay [2] is T2, BIK1^C80A-HA (HA-tagged BIK1 C80A in transgenic Arabidopsis) (Arabidopsis (Col-0 cDNA)) (UniProt O48814).
T2 sequence: T1 sequence with C80A
The assay is described as above.

Residue numbers refer to the chain shown, from its start. These are yes or no findings as the source states them, for the method shown. In cells and extracts the contact can be indirect. Some results given as binding are weak or reduced against the parent protein; the word gives no strength. Sequences can lack the tags named with a protein.

For the substance “FLAG-RBOHD-N (FLAG-tagged RBOHD N terminus) (from UniProt Q9FIJ0 1-376) (domain or fragment)”, the binding entry in assay [1] and in assay [2] was “binds” each time.

The record behind these values is paper PMC10942119, “S-nitrosylation of a receptor-like cytoplasmic kinase regulates plant immunity” (Science Advances, 2024).
